# Results: the supplement of paper PMC4604168 (melanoma cell lines)
# The other results are listed elsewhere or left out. Repeats are few or missing, and single values can be far off.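 Imaging used 1,536-well plates; nuclei positive for cleaved PARP by antibody were divided by total DNA-stained nuclei to yield the apoptosis fraction. Doses for screening kept most cells viable, and cell lines differ markedly in resting and induced cleaved-PARP levels.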
# Columns and labels:
# Assay in all cases: cleaved PARP positive nuclei fraction relative to DMSO control; melanoma cells; higher = more apoptosis
# Conditions in all cases: library dose: low library concentration; 72 h
# [1] = tested on: 501Mel
# [2] = tested on: A101D
# [3] = tested on: A2058
# [4] = tested on: C32
# [5] = tested on: CBRC008 (line from a melanoma biopsy)
# [6] = tested on: CBRC014 (line from a melanoma biopsy)
# [7] = tested on: CBRC016 (line from a melanoma biopsy)
# [8] = tested on: CBRC017 (line from a melanoma biopsy)
# [9] = tested on: COLO792
# [10] = tested on: COLO800
# [11] = tested on: COLO829
# [12] = tested on: G361
# [13] = tested on: IPC-298
# [14] = tested on: IST-MEL1
# [15] = tested on: LB2518-MEL
# [16] = tested on: LOXIMVI
Compound,cleaved PARP positive nuclei fraction [1] [%],cleaved PARP positive nuclei fraction [2] [%],cleaved PARP positive nuclei fraction [3] [%],cleaved PARP positive nuclei fraction [4] [%],cleaved PARP positive nuclei fraction [5] [%],cleaved PARP positive nuclei fraction [6] [%],cleaved PARP positive nuclei fraction [7] [%],cleaved PARP positive nuclei fraction [8] [%],cleaved PARP positive nuclei fraction [9] [%],cleaved PARP positive nuclei fraction [10] [%],cleaved PARP positive nuclei fraction [11] [%],cleaved PARP positive nuclei fraction [12] [%],cleaved PARP positive nuclei fraction [13] [%],cleaved PARP positive nuclei fraction [14] [%],cleaved PARP positive nuclei fraction [15] [%],cleaved PARP positive nuclei fraction [16] [%]
"CN(c1ncccc1CNc1nc(Nc2ccc3c(c2)CC(=O)N3)ncc1C(F)(F)F)S(C)(=O)=O + COc1cc(N2CCC(N3CCN(C)CC3)CC2)ccc1Nc1ncc(Cl)c(Nc2ccccc2S(=O)(=O)C(C)C)n1 [NVP-TAE684] (first compound 0.08 µM, partner dose 0.08 µM)",160,27.6,90,143,133,107,28.8,90.5,197,142,60.3,113,43.1,233,60.7,70
"C[C@]1(O)C[C@@H](c2nc(-c3ccc4ccc(-c5ccccc5)nc4c3)c3c(N)nccn32)C1 + O=c1cc(-c2cccc3c2Sc2ccccc2S3)oc(N2CCOCC2)c1 [KU55933] (first compound 0.4 µM, partner dose 1 µM)",82.5,34.8,68.4,126,202,98.5,82,92.7,148,75.8,62.7,165,94.4,71.4,203,60.1
"NC1(c2ccc(-c3nc4ccn5c(=O)[nH]nc5c4cc3-c3ccccc3)cc2)CCC1 + O=C(Nc1ccccc1)c1cc([N+](=O)[O-])ccc1Cl [GW9662] (first compound 0.4 µM, partner dose 2 µM)",140,16.8,28.7,30.7,189,93.3,62.9,92.8,38.5,328,120,87.8,82.2,110,152,97.3
"NC(=O)c1ccc(N(C(N)=O)c2c(F)cccc2F)nc1-c1ccc(F)cc1F + N#Cc1c(O)c2c(-c3ccc(-c4ccccc4O)cc3)csc2[nH]c1=O [A769662] (first compound 0.4 µM, partner dose 2 µM)",87.9,12.2,65.8,151,64.8,92.7,92.6,78.7,105,110,68.8,110,113,75.3,153,125
"CC1(C)CCC(c2ccc(Cl)cc2)=C(CN2CCN(c3ccc(C(=O)NS(=O)(=O)c4ccc(N[C@H](CCN5CCOCC5)CSc5ccccc5)c(S(=O)(=O)C(F)(F)F)c4)cc3)CC2)C1 + c1cc(-c2cnn3cc(-c4ccc(OCCN5CCCCC5)cc4)cnc23)ccn1 [Dorsomorphin] (first compound 0.4 µM, partner dose 0.4 µM)",195,123,38,371,283,421,376,543,437,61.8,161,171,30.4,217,419,37.8
"CN(c1ncccc1CNc1nc(Nc2ccc3c(c2)CC(=O)N3)ncc1C(F)(F)F)S(C)(=O)=O + Oc1cc(-c2nc(-c3ccccc3)[nH]c2-c2ccncc2)ccc1Cl [L779450] (first compound 0.08 µM, partner dose 0.2 µM)",156,45.7,58.6,173,177,94.1,82.2,77.9,118,90,61.1,79.9,57.7,84.2,86.7,104
"Cn1cnc2c(F)c(Nc3ccc(Br)cc3Cl)c(C(=O)NOCCO)cc21 [selumetinib] + COc1ccc(-c2ccc3c(N4CCOCC4)nc(N4C[C@@H](C)O[C@@H](C)C4)nc3n2)cc1CO [KU0063794] (first compound 0.015 µM, partner dose 0.02 µM)",95.1,76.5,17.7,23.3,280,146,125,138,26.4,32.5,94.5,162,126,145,260,109
"NC(=O)c1ccc(N(C(N)=O)c2c(F)cccc2F)nc1-c1ccc(F)cc1F + COc1ccc2c(c1)CCC1C2CCC2(C)C(NCCCCCCN3C(=O)C=CC3=O)CCC12 [U73122] (first compound 0.4 µM, partner dose 0.4 µM)",80.8,42.3,88.8,87.2,150,94.6,85.3,106,775,78,203,102,198,125,73.8,52
"CCN(CC)CCNC(=O)c1c(C)[nH]c(/C=C2\C(=O)Nc3ccc(F)cc32)c1C [sunitinib] + Cc1cc([N+](=O)[O-])ccc1NS(=O)(=O)c1cc(Cl)ccc1Cl [FH535] (first compound 0.4 µM, partner dose 1 µM)",83.2,42.2,87.5,90.5,1010,132,408,196,168,81,106,241,152,715,61.4,168
"Cn1cnc2c(F)c(Nc3ccc(Br)cc3Cl)c(C(=O)NOCCO)cc21 [selumetinib] + c1cc(-c2cnn3cc(-c4ccc(OCCN5CCCCC5)cc4)cnc23)ccn1 [Dorsomorphin] (first compound 0.015 µM, partner dose 0.4 µM)",113,18.2,106,42.6,168,97,67.1,121,20.9,67.9,67.6,234,105,121,211,173
"CC1(C)CCC(c2ccc(Cl)cc2)=C(CN2CCN(c3ccc(C(=O)NS(=O)(=O)c4ccc(N[C@H](CCN5CCOCC5)CSc5ccccc5)c(S(=O)(=O)C(F)(F)F)c4)cc3)CC2)C1 + COc1ccc(-c2ccc3c(N4CCOCC4)nc(N4C[C@@H](C)O[C@@H](C)C4)nc3n2)cc1CO [KU0063794] (first compound 0.4 µM, partner dose 0.02 µM)",63.9,62.9,247,256,485,427,312,268,293,331,123,214,151,85.4,177,91.5
"NC1(c2ccc(-c3nc4ccn5c(=O)[nH]nc5c4cc3-c3ccccc3)cc2)CCC1 + c1cc(-c2cnn3cc(-c4ccc(OCCN5CCCCC5)cc4)cnc23)ccn1 [Dorsomorphin] (first compound 0.4 µM, partner dose 0.4 µM)",287,23,57.6,60.8,143,91.5,25.5,99.9,194,50.6,55.1,97.5,49.1,77.6,83,219
"CN(c1ncccc1CNc1nc(Nc2ccc3c(c2)CC(=O)N3)ncc1C(F)(F)F)S(C)(=O)=O + Cc1cc([N+](=O)[O-])ccc1NS(=O)(=O)c1cc(Cl)ccc1Cl [FH535] (first compound 0.08 µM, partner dose 1 µM)",202,54.8,70.3,108,538,311,520,357,223,64.7,122,78,145,96.2,85.2,64.2
"CN(c1ncccc1CNc1nc(Nc2ccc3c(c2)CC(=O)N3)ncc1C(F)(F)F)S(C)(=O)=O + COc1ccc2c(c1)CCC1C2CCC2(C)C(NCCCCCCN3C(=O)C=CC3=O)CCC12 [U73122] (first compound 0.08 µM, partner dose 0.4 µM)",81.9,21,81.9,45.4,157,95.1,75.3,77.4,119,61.7,31.8,83.6,92.1,107,73.3,67.5
"CCCCCCCCc1ccc(CCC(N)(CO)CO)cc1 [fingolimod] + COc1cc2ncnc(Nc3ccc(Oc4ccccc4)cc3)c2cc1OC [SrcI1] (first compound 2 µM, partner dose 2 µM)",222,37.4,70.8,162,43.2,219,665,77.4,122,100,132,140,93.9,82.6,93.7,29.7
"COc1ccc(C2=N[C@@H](c3ccc(Cl)cc3)[C@@H](c3ccc(Cl)cc3)N2C(=O)N2CCNC(=O)C2)c(OC(C)C)c1 [Nutlin-3] + COC(=O)c1sccc1S(=O)(=O)Nc1ccc(Nc2ccccc2)cc1OC [GSK0660] (first compound 0.1 µM, partner dose 1 µM)",73,21.9,24.3,121,125,111,100,87.1,137,168,162,140,187,107,42.1,71.7
"NC1(c2ccc(-c3nc4ccn5c(=O)[nH]nc5c4cc3-c3ccccc3)cc2)CCC1 + Oc1cc(-c2nc(-c3ccccc3)[nH]c2-c2ccncc2)ccc1Cl [L779450] (first compound 0.4 µM, partner dose 0.2 µM)",143,31.3,105,163,58.4,107,120,86.6,15.7,118,76.4,91.7,105,134,101,41.1

# An excerpt of these results, with bars between the fields:
Compound | cleaved PARP positive nuclei fraction [1] [%] | cleaved PARP positive nuclei fraction [2] [%] | cleaved PARP positive nuclei fraction [3] [%] | cleaved PARP positive nuclei fraction [4] [%] | cleaved PARP positive nuclei fraction [5] [%] | cleaved PARP positive nuclei fraction [6] [%] | cleaved PARP positive nuclei fraction [7] [%] | cleaved PARP positive nuclei fraction [8] [%] | cleaved PARP positive nuclei fraction [9] [%] | cleaved PARP positive nuclei fraction [10] [%] | cleaved PARP positive nuclei fraction [11] [%] | cleaved PARP positive nuclei fraction [12] [%] | cleaved PARP positive nuclei fraction [13] [%] | cleaved PARP positive nuclei fraction [14] [%] | cleaved PARP positive nuclei fraction [15] [%] | cleaved PARP positive nuclei fraction [16] [%]
CCN(CC)CCNC(=O)c1c(C)[nH]c(/C=C2\C(=O)Nc3ccc(F)cc32)c1C [sunitinib] + Cc1cc([N+](=O)[O-])ccc1NS(=O)(=O)c1cc(Cl)ccc1Cl [FH535] (first compound 0.4 µM, partner dose 1 µM) | 83.2 | 42.2 | 87.5 | 90.5 | 1010 | 132 | 408 | 196 | 168 | 81 | 106 | 241 | 152 | 715 | 61.4 | 168
Cn1cnc2c(F)c(Nc3ccc(Br)cc3Cl)c(C(=O)NOCCO)cc21 [selumetinib] + c1cc(-c2cnn3cc(-c4ccc(OCCN5CCCCC5)cc4)cnc23)ccn1 [Dorsomorphin] (first compound 0.015 µM, partner dose 0.4 µM) | 113 | 18.2 | 106 | 42.6 | 168 | 97 | 67.1 | 121 | 20.9 | 67.9 | 67.6 | 234 | 105 | 121 | 211 | 173
